Assay: Loss of peptide on discoloration (heme precipitation at pH 4.5), peak area in RP-UPLC-MS/MS
Settings: variation of the peak area of the peptide between raw and discolored hydrolysate spectra; 100 = absent in discolored hydrolysate

Substance	Decrease (%)
FESF [porcine hemoglobin fragment β 43–46]	10.8%
LLVVYPWTQRF [porcine hemoglobin fragment β 32–42]	47.3%
DQLHVDPENFRLLGNVIVVVLARRLGHDFNPNVQ [porcine hemoglobin fragment β 95–128]	100.0%
HVDPENFRLLGNVIVVVLARRLGHDFNPNVQ [porcine hemoglobin fragment β 98–128, synthesized]	90.0%
NLSHGSDQVKAHGQKVADALTKAVGHLDDLPGAL [porcine hemoglobin fragment α 47–80]	16.6%
LVVYPWTQRF [porcine hemoglobin fragment β 33–42]	11.6%

From publication PMC9778238, “How Discoloration of Porcine Cruor Hydrolysate Allowed the Identification of New Antifungal Peptides” (Foods, 2022)
